Reference: PubChem BioAssay AID504467 (National Center for Advancing Translational Sciences (NCATS), 2011)
Hit rate of the full screen: of about 330,000 compounds, about 7,700 (2.3%) were called active. This list was built around the results that the source calls inconclusive (neither active nor inactive); the mix of calls is not that of the screen. Calls come from the whole dose curve; as a rule, active = well fitted inhibition curve with a large enough effect; inconclusive = small, poorly fitted or top-dose-only effect, or effect the other way; inactive = flat fitted curve, though single readings scatter. A potency beside an inconclusive call is a rough fit, not a confirmed value.

Test: qHTS screen for small molecules that inhibit ELG1-dependent DNA repair in human embryonic kidney (HEK293T) cells expressing luciferase-tagged ELG1; note: nearly all actives have a fitted effect of over 55% in size
Settings: HEK293T ELG1-luciferase reporter, luminescence, 16 h, DNA damage induced by 5-fluorouridine; activity change, negative = inhibition: at 46.1 µM (top of the series)
How it was run: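 Quantitative HTS, concentration-response format. 2,000 cells/well co-treated with 5-fluorouridine and compound, 16 hr in 5% CO2 at 37 °C; ONE-Glo luminescence read after 30 min.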
% is set by controls: 0 for no effect and ±100 for the full control effect; potency is the fitted concentration of half-maximal effect.

SMILES | Potency | activity change, negative = inhibition
COc1cc([N+](=O)[O-])ccc1NC(=O)CN1CCN(C(=O)c2ccco2)CC1 | inconclusive: 18.3 µM [inhibitor, single point] | –
CSc1nc2n(n1)C(C)C1=C(CCCC1=O)N2 (configuration not stated) | inconclusive: 16.4 µM [activator, single point] | –
Cc1cccc(OCC(O)CN2CCN(S(=O)(=O)c3ccc(C)cc3C)CC2)c1 (configuration not stated) | active: 11.6 µM | –
CC(NC(=O)c1ccccc1)C(=O)NC1=NCCS1 (configuration not stated) | inactive | –
O=C(CN1CCN(c2ccc(Cl)cc2)CC1)NCc1ccccc1 | inconclusive: 29.1 µM [inhibitor, single point] | –
COc1ccc(N2C(=O)C(CC(=O)O)S/C2=C\C(C)=O)cc1 (configuration not stated) | inconclusive: 3.66 µM [inhibitor, partial curve, poor fit] | –
CS(=O)(=O)N(CCc1ccccc1)CC(=O)N1CCN(c2ccccc2)CC1 | inconclusive: 29.1 µM [inhibitor, single point] | –
CCn1cc(C(=O)Nc2cccc(C)c2)c(=O)c2ccc(C)nc21 | inactive | –
CC(=O)c1ccc(OCc2cc(C(=O)N(C)Cc3nc4c(C)cccc4[nH]3)no2)cc1 | inactive | –
O=C(Cc1noc2ccccc12)Nc1ccc2ccccc2c1 | inconclusive: 20.6 µM [activator, single point] | –
Cc1cc(SCC(=O)Nc2cccc(S(N)(=O)=O)c2)c(C)cc1Br | inconclusive: 16.4 µM [inhibitor, single point] | –
O=C(CSc1nncc2ccccc12)Nc1cccc(O)c1 | inactive | –
O=C(CCc1nc(-c2ccccc2F)no1)Nc1ccc(Oc2ccccc2)cc1 | inconclusive: 0.651 µM [inhibitor, partial curve] | –
Cc1cc(NC(=O)c2ccc3c(c2)OCO3)ccc1NC(=O)c1ccco1 | inconclusive: 2.59 µM [activator, full curve] | –
Cc1ccc2nc3sc(C(=O)Nc4c(C)[nH]c(=O)[nH]c4=O)c(N)c3cc2c1 | inconclusive: 18.4 µM [activator, single point] | –
O=C(NC(=S)Nc1ccccc1Br)c1ccco1 | inconclusive: 20.6 µM [activator, partial curve] | –
CCNC(=S)N(Cc1cc2cc(C)cc(C)c2[nH]c1=O)C1CCCC1 | inactive | –
Cc1ccc(C(=O)NCCN(C)C)c(C)c1 | inactive | –
NC(=O)c1cc([N+](=O)[O-])ccc1NCc1ccc(F)cc1 | inconclusive: 35.5 µM [activator, single point] | –
COC(=O)[C@@]1(Cc2ccc(OC)cc2)[C@H]2c3cc(C(=O)N(C)C)n(C[C@H](O)CO)c3C[C@H]2CN1C(=O)c1ccccc1 | inactive | –
CCOC(=O)C1=CN(Cc2cccc(F)c2)S(=O)(=O)NC1CCc1ccccc1 (configuration not stated) | inconclusive: 29.1 µM [inhibitor, single point] | –
Cc1c(C(=O)N(Cc2ccccc2Cl)C2CCS(=O)(=O)C2)oc2ccccc12 (configuration not stated) | inconclusive: 25.9 µM [inhibitor, single point] | –
COc1cc(C)c(C(=O)Oc2cc(C)c(C(=O)O)c(O)c2C)c(O)c1C(=O)O | inconclusive: 13 µM [activator, partial curve, poor fit] | –

20 of these compounds in a different format:
SMILES	Potency	activity change, negative = inhibition
CSc1nc2n(n1)C(C)C1=C(CCCC1=O)N2 (configuration not stated)	inconclusive: 16.4 µM [activator, single point]	–
Cc1cccc(OCC(O)CN2CCN(S(=O)(=O)c3ccc(C)cc3C)CC2)c1 (configuration not stated)	active: 11.6 µM	–
CC(NC(=O)c1ccccc1)C(=O)NC1=NCCS1 (configuration not stated)	inactive	–
O=C(CN1CCN(c2ccc(Cl)cc2)CC1)NCc1ccccc1	inconclusive: 29.1 µM [inhibitor, single point]	–
COc1ccc(N2C(=O)C(CC(=O)O)S/C2=C\C(C)=O)cc1 (configuration not stated)	inconclusive: 3.66 µM [inhibitor, partial curve, poor fit]	–
CS(=O)(=O)N(CCc1ccccc1)CC(=O)N1CCN(c2ccccc2)CC1	inconclusive: 29.1 µM [inhibitor, single point]	–
CCn1cc(C(=O)Nc2cccc(C)c2)c(=O)c2ccc(C)nc21	inactive	–
CC(=O)c1ccc(OCc2cc(C(=O)N(C)Cc3nc4c(C)cccc4[nH]3)no2)cc1	inactive	–
O=C(Cc1noc2ccccc12)Nc1ccc2ccccc2c1	inconclusive: 20.6 µM [activator, single point]	–
Cc1cc(SCC(=O)Nc2cccc(S(N)(=O)=O)c2)c(C)cc1Br	inconclusive: 16.4 µM [inhibitor, single point]	–
O=C(CSc1nncc2ccccc12)Nc1cccc(O)c1	inactive	–
O=C(CCc1nc(-c2ccccc2F)no1)Nc1ccc(Oc2ccccc2)cc1	inconclusive: 0.651 µM [inhibitor, partial curve]	–
Cc1cc(NC(=O)c2ccc3c(c2)OCO3)ccc1NC(=O)c1ccco1	inconclusive: 2.59 µM [activator, full curve]	–
Cc1ccc2nc3sc(C(=O)Nc4c(C)[nH]c(=O)[nH]c4=O)c(N)c3cc2c1	inconclusive: 18.4 µM [activator, single point]	–
O=C(NC(=S)Nc1ccccc1Br)c1ccco1	inconclusive: 20.6 µM [activator, partial curve]	–
CCNC(=S)N(Cc1cc2cc(C)cc(C)c2[nH]c1=O)C1CCCC1	inactive	–
Cc1ccc(C(=O)NCCN(C)C)c(C)c1	inactive	–
NC(=O)c1cc([N+](=O)[O-])ccc1NCc1ccc(F)cc1	inconclusive: 35.5 µM [activator, single point]	–
COC(=O)[C@@]1(Cc2ccc(OC)cc2)[C@H]2c3cc(C(=O)N(C)C)n(C[C@H](O)CO)c3C[C@H]2CN1C(=O)c1ccccc1	inactive	–
CCOC(=O)C1=CN(Cc2cccc(F)c2)S(=O)(=O)NC1CCc1ccccc1 (configuration not stated)	inconclusive: 29.1 µM [inhibitor, single point]	–

As entered above:
Entry of CS(=O)(=O)N(CCc1ccccc1)CC(=O)N1CCN(c2ccccc2)CC1 under Potency: inconclusive: 29.1 µM [inhibitor, single point]
Entry of COc1ccc(N2C(=O)C(CC(=O)O)S/C2=C\C(C)=O)cc1 (configuration not stated) under Potency: inconclusive: 3.66 µM [inhibitor, partial curve, poor fit]

More results follow:

SMILES | Potency | activity change, negative = inhibition
Cc1ccc(Nc2nc(-c3cccs3)cs2)nc1 | inconclusive: 0.58 µM [activator, full curve] | –
O=C(c1ccc(=O)[nH]c1)N1CCN(S(=O)(=O)c2ccccc2)CC1 | inactive | –
CCN(CC(=O)Nc1ccccc1OC)C(=O)c1cc(-c2ccccc2)nn1-c1ccccc1 | inconclusive: 20.6 µM [inhibitor, partial curve] | –
O=C(c1ccc(-c2ccc([N+](=O)[O-])cc2)o1)N1CCCC(C(F)(F)F)C1 (configuration not stated) | inactive | –
C[C@H](CO)N1C[C@H](C)[C@@H](CN(C)S(=O)(=O)c2ccccc2)Oc2ccc(NC(=O)Nc3ccc(C(F)(F)F)cc3)cc2C1=O | active: 20.6 µM | –
COCCN(C(=O)Cc1cccs1)C(C(=O)NC1CCCC1)c1cc(OC)c(OC)c(OC)c1 (configuration not stated) | inconclusive: 18.3 µM [activator, partial curve] | –
Cc1[nH]n(-c2ccccc2)c(=O)c1C(c1ccc(C(=O)O)cc1)c1c(C)[nH]n(-c2ccccc2)c1=O | inactive | –
NC(=O)N/N=C/c1cn(-c2ccccc2)nc1-c1ccccc1 | inconclusive: 16.4 µM [activator, partial curve, poor fit] | –
O=C(CNC(=O)c1ccc(F)cc1)NCc1ccccn1 | inconclusive: 29.1 µM [activator, single point] | –
CC(=O)Nc1cccc(C(=O)NC2CCCc3c2cnn3-c2ccc(C(C)(C)C)cc2)c1 (configuration not stated) | active: 8.2 µM | –
Cc1nc2ccccc2nc(C)c1=NOCc1ccccc1Cl | – | inconclusive: 43.5% [activator]
CCCCC12CN3CCN(CC(C3)/C1=N\NC(=O)Nc1ccccc1)C2 | inactive | –
COc1cc(/C=C/C(=O)NCc2cccnc2)cc(OC)c1OC | inconclusive: 18.4 µM [activator, partial curve, poor fit] | –
COc1ccc(CNC(=O)[C@]2(C)CCC[C@@]3(C)C4CC[C@@]5(C)C[C@]4(CCC32)CC5=O)cc1 (some centres not stated) | inconclusive: 29.1 µM [inhibitor, single point] | –
Cn1nc(-c2ccc(S(N)(=O)=O)s2)cc1C(F)(F)F | inconclusive: 6.51 µM [inhibitor, partial curve, poor fit] | –
COc1ccc(NC(=O)CN(C)CC(=O)Nc2sc3c(c2C#N)CCC3)cc1 | inconclusive: 14.6 µM [inhibitor, partial curve, poor fit] | –
CN(C)/C=N/c1sc2c(c1C#N)CCCC2 | inconclusive: 29.1 µM [activator, single point] | –
CC(=O)c1cccc(NC(=O)NN2CCN(C)CC2)c1 | inactive | –
O=C(CSc1nn(-c2ccccc2)c(=S)s1)NC(=O)NCc1ccco1 | inconclusive: 6.51 µM [inhibitor, partial curve, poor fit] | –
O=C1CSC(=Nc2cccc(C(=O)O)c2)N1 | inconclusive: 32.6 µM [activator, partial curve, poor fit] | –
c1cnn(-c2cncc(-n3cccn3)n2)c1 | inconclusive: 29.1 µM [activator, single point] | –
Cc1ccc(Nc2c(-c3ccco3)nc3nc(C)cc(C)n23)cc1 | inactive | –
Cc1ccc(/C(N)=N/OC(=O)C23CC4CC(CC(C4)C2)C3)cc1 | inconclusive: 20.6 µM [activator, partial curve] | –

SMILES | Potency | activity change, negative = inhibition
C=C(C(=O)c1ccccc1)C(C)CC(=O)c1ccccc1 (configuration not stated) | inconclusive: 16.4 µM [inhibitor, single point] | –
COc1cccc(Oc2ccc(S(=O)(=O)N3CCCC3)cc2[N+](=O)[O-])c1 | inconclusive: 18.3 µM [inhibitor, single point] | –
Cc1ccc(NC(=O)Nc2ccon2)cc1Cl | inactive | –
CCC(=O)NCCc1nc2cc(NC(=O)c3cccs3)ccc2n1C | inconclusive: 20.6 µM [activator, partial curve] | –
CCOc1ccc(Nc2nc(N)c3ccccc3n2)cc1 | inconclusive: 0.411 µM [activator, partial curve] | –
O=c1c(Cl)c(Cl)cnn1Cc1ccc(F)cc1 | inconclusive: 29.1 µM [inhibitor, single point] | –
CCCc1cc(C(N)=O)c(NC(=O)c2ccoc2C)s1 | inconclusive: 23.1 µM [inhibitor, single point] | –
O=C(CSc1ncn[nH]1)Nc1nc(-c2ccccc2)cs1 | inconclusive: 16.4 µM [inhibitor, single point] | –
Nc1cc(=O)[nH]c(SCC(=O)Nc2cc(S(=O)(=O)N3CCCCC3)ccc2Cl)n1 | inactive | –
CC(C)NCC(O)Cn1c2c(c3ccccc31)CCc1c-2cnn1-c1ccccc1 (configuration not stated) | inconclusive: 4.11 µM [inhibitor, single point] | –
CC(C)(C)NC(=O)C(=O)N/N=C/c1ccc(F)cc1 | inconclusive: 14.6 µM [activator, partial curve, poor fit] | –
COc1ccc(N2CCN(c3ncnc4sc(C(=O)NCC5CCCO5)c(C)c34)CC2)cc1 (configuration not stated) | inconclusive: 29.1 µM [inhibitor, single point] | –
O=C(CSc1nc2ncc(Cl)cc2[nH]1)Nc1ccccc1-c1ccccc1 | inconclusive: 25.9 µM [inhibitor, single point] | –
O=C(CCc1nnc2ccc(N3CCC4(CC3)OCCO4)nn12)NCc1ccccc1Cl | inconclusive: 2.06 µM [inhibitor, partial curve] | –
CC(C)NC(=O)N(C)C[C@H]1Oc2c(NC(=O)C3CCCCC3)cccc2C(=O)N([C@H](C)CO)C[C@@H]1C | inactive | –
Cc1nn(CC(=O)OCC(=O)c2ccc(OC(F)F)cc2)c(C)c1[N+](=O)[O-] | inconclusive: 13 µM [activator, single point] | –
CCc1c(C)nc2cc(-c3cc(OC)cc(OC)c3)nn2c1N1CCCC1 | inconclusive: 14.6 µM [inhibitor, single point] | –
C/C=C\C=C\C(=O)N1CC2(CC(c3cccc(NC(=O)CC(c4ccccc4)c4ccccc4)c3)=NO2)C[C@H]1C(N)=O (some centres not stated) | inactive | –
CC(=O)Nc1ccc(NC(=O)c2cc(S(=O)(=O)N3CCCCC3)ccc2C)cc1 | inconclusive: 29.1 µM [activator, single point] | –
O=C1OCCN1C(=O)[C@H]1[C@H](c2ccc([N+](=O)[O-])cc2)C(c2ccccc2)=NN1c1ccc(Br)cc1 | inactive | –
O=C(N/N=C/c1ccc([N+](=O)[O-])o1)c1ccncc1 | inconclusive: 18.3 µM [inhibitor, single point] | –
